PubChem BioAssay AID743456, Peter MacCallum Cancer Centre | 2014
Here is an unselected part of 878 deposited reagents. 27 of them (3.1%) were called active. 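27 mimics are marked active, unlike an earlier stated count of 24; the viability threshold is described inconsistently.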 Not stated in the record: the amount of reagent.

Aim: 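miRNA mimics altering how resistant colon cancer cells respond to vorinostat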 (primary screen)
Cell system: human HCT116-VR colon cancer cells, a vorinostat-resistant HCT116 line
Reagents: miRNA mimic
Time to read-out: about 3 days from transfection to readout; drug present for the last 24 h
Challenge: vorinostat at 2.5 µM final for 24 h
Measurement: 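Per-well live-cell protease fluorescence and caspase luminescence under 2.5 µM vorinostat for 24 h, scored as robust z-scores and against mock transfection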
Scale: viability robust z-score and viability vs mock transfection: higher = more viable cells; caspase robust z-score: higher = more caspase activity, more apoptosis
Call rule: 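Active when viability drops or caspase activity climbs beyond robust z thresholds, with wells of poor cell health excluded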

The first 2 entries, ahead of the listing:
miRNA	viability robust z-score	caspase robust z-score	viability hit class	caspase hit class	viability vs mock transfection	call
hsa-miR-192*	-0.3	-0.68	no change	no change	0.75	inactive
hsa-miR-138-1*	-0.03	-0.8	no change	no change	0.78	inactive

The listing, from the start:
miRNA	viability robust z-score	caspase robust z-score	viability hit class	caspase hit class	viability vs mock transfection	call
hsa-miR-192*	-0.3	-0.68	no change	no change	0.75	inactive
hsa-miR-138-1*	-0.03	-0.8	no change	no change	0.78	inactive
hsa-miR-1471	0.82	-0.3	no change	no change	0.92	inactive
hsa-miR-9*	0.64	0.53	no change	no change	0.88	inactive
hsa-miR-938	-0.27	2.54	no change	no change	0.76	inactive
hsa-miR-195	-1.31	1.04	no change	no change	0.52	inactive
hsa-miR-155	0.28	0.69	no change	no change	0.8	inactive
hsa-miR-1288	-0.83	2.65	no change	no change	0.68	inactive
hsa-miR-1296	-1.2	1.6	no change	no change	0.6	inactive
hsa-miR-1975	1.75	-0.23	no change	no change	1.06	inactive
hsa-miR-34b*	-0.73	0.85	no change	no change	0.69	inactive
hsa-miR-511	0.3	0.95	no change	no change	0.84	inactive
hsa-miR-19a	0.19	0.31	no change	no change	0.82	inactive
hsa-miR-325	-0.18	-0.1	no change	no change	0.72	inactive
hsa-miR-611	1.42	-0.55	no change	no change	1	inactive
hsa-miR-139-3p	1.74	0.9	no change	no change	1.06	inactive
hsa-miR-346	0.02	0.72	no change	no change	0.76	inactive
hsa-miR-645	0.18	-0.5	no change	no change	0.82	inactive
hsa-miR-320d	0.15	0.6	no change	no change	0.82	inactive
hsa-let-7d*	0.89	-0.2	no change	no change	0.91	inactive
hsa-miR-372	0.18	1.29	no change	no change	0.78	inactive
hsa-miR-1293	-3.16	2.51	reduced viability	no change	0.18	active
hsa-miR-576-5p	1.24	-0.59	no change	no change	0.98	inactive
hsa-miR-633	0.11	-0.73	no change	no change	0.81	inactive
hsa-miR-615-5p	1.1	-0.8	no change	no change	0.98	inactive
hsa-miR-1181	0.15	1.14	no change	no change	0.81	inactive
hsa-miR-105*	0.01	1.29	no change	no change	0.76	inactive
hsa-miR-362-3p	0.28	1	no change	no change	0.84	inactive
hsa-miR-32*	-0.18	0.4	no change	no change	0.76	inactive
hsa-miR-181a	0.42	1.66	no change	no change	0.86	inactive
hsa-miR-801	-0.59	-0.36	no change	no change	0.71	inactive
hsa-miR-1201	-0.16	0.12	no change	no change	0.76	inactive
hsa-miR-520e	0.22	2.29	no change	no change	0.82	inactive
hsa-miR-1294	-2.02	1.5	no change	no change	0.38	inactive
hsa-miR-505	-0.34	0.48	no change	no change	0.74	inactive
hsa-miR-664*	0.11	0.78	no change	no change	0.77	inactive
hsa-miR-767-5p	0.16	-0.82	no change	no change	0.77	inactive
hsa-miR-520f	0.53	3.75	no change	no change	0.87	inactive
hsa-miR-2113	-0.86	0.2	no change	no change	0.64	inactive
hsa-miR-892a	-1.68	1.07	no change	no change	0.44	inactive
hsa-miR-1185	-0.24	0.54	no change	no change	0.76	inactive
hsa-miR-326	-2.02	2.96	no change	no change	0.45	inactive
hsa-miR-606	1.04	0.02	no change	no change	0.96	inactive
hsa-miR-548k	0.48	-0.9	no change	no change	0.84	inactive
hsa-miR-1260	-0.59	-1.1	no change	no change	0.7	inactive
hsa-miR-627	0.2	-0.89	no change	no change	0.82	inactive
hsa-miR-374b	0.98	-0.47	no change	no change	0.96	inactive
hsa-miR-330-5p	-1.86	2.14	no change	no change	0.42	inactive
hsa-miR-30e	1.22	-0.48	no change	no change	1	inactive
hsa-miR-7-2*	0.62	-0.43	no change	no change	0.86	inactive
hsa-miR-152	0.74	0.03	no change	no change	0.88	inactive
hsa-miR-652	0.73	-0.82	no change	no change	0.91	inactive
hsa-let-7g*	-1.53	1.48	no change	no change	0.53	inactive
hsa-miR-550*	-0.52	1.29	no change	no change	0.7	inactive
hsa-miR-589*	0.32	0.7	no change	no change	0.8	inactive
hsa-miR-10b*	1.25	0.36	no change	no change	0.98	inactive
hsa-miR-297	-1.28	-0.32	no change	no change	0.52	inactive
hsa-miR-454*	1.31	-0.48	no change	no change	0.98	inactive
hsa-miR-130b	1.13	-0.49	no change	no change	0.98	inactive
hsa-miR-503	-1.59	0.2	no change	no change	0.52	inactive
hsa-miR-423-5p	-1.01	2.57	no change	no change	0.64	inactive
hsa-miR-1300	-4.2	1.06	no change	no change	0.16	inactive
hsa-miR-200a*	0.03	-0.98	no change	no change	0.76	inactive
